Structures can show the parent of a compound that is named as a salt. The list shows a part of the results. Hit calls seldom repeat between salt and free forms of one compound.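 In K562 cells expressing nanoluciferase-fused kinases, luminescence was recorded at 4 h intervals between 2 and 18 h, normalized as percent of control with DMSO at 100% and a positive control at 0%. A significant (2 sigma) signal drop marks a time point as decreased. The authors' rule for a hit is not shown and takes in more than the number of time points.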
Tests used:
Assay in all cases: number of time points (of 5) at which kinase-Nluc abundance scored as decreased, DMSO-normalised (count); higher = more persistent destabilization
Settings in all cases: K562; 2-18 h
PRKCA = PRKCA (UniProt P17252)
PTK2 = PTK2 (UniProt Q05397)
RAF1 = RAF1 (UniProt P04049)
[1] = molecular target: RAF1_S257L (clone: RAF1_mut) (UniProt P04049)
RET = RET (UniProt P07949)
[2] = molecular target: RET_M918T (clone: RET_mut) (UniProt P07949)
RIOK1 = RIOK1 (UniProt Q9BRS2)
RIPK1 = RIPK1 (UniProt Q13546)
RIPK2 = RIPK2 (UniProt O43353)
PTK2B = PTK2B (UniProt Q14289)

Chains of the proteins cited; added tags and fusions are not shown. Lines headed by an entry give the natural chain unless they say otherwise; changes in a name come on top.
UniProt Q05397, whole entry, looked up: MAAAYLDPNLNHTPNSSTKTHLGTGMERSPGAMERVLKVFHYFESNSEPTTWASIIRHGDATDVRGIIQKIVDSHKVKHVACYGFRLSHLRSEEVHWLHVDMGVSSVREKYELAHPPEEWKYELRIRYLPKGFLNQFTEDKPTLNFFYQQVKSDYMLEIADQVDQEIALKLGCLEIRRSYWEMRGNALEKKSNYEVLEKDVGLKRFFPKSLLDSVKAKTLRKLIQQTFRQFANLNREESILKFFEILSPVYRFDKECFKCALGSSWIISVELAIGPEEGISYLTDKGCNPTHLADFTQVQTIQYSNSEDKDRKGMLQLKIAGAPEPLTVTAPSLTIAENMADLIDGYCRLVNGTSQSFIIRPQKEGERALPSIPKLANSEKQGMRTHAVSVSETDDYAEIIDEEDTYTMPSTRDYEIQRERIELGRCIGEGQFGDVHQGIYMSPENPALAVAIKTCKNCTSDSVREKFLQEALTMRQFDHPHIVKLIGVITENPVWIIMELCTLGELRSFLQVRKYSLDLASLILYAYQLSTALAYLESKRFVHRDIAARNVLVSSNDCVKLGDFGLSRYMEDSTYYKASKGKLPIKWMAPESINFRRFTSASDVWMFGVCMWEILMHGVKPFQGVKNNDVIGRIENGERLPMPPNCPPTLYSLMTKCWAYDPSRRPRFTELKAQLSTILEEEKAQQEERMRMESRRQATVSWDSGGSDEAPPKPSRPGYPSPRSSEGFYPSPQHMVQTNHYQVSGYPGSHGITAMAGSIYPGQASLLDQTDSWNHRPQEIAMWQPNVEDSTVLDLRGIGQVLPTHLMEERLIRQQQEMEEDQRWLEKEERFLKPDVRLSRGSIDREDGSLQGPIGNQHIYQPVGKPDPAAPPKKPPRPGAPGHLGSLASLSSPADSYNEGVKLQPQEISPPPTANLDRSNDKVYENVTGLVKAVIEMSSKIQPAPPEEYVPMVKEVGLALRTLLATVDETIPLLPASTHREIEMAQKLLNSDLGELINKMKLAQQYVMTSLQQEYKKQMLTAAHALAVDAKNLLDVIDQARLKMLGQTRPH
UniProt P07949, whole entry, looked up: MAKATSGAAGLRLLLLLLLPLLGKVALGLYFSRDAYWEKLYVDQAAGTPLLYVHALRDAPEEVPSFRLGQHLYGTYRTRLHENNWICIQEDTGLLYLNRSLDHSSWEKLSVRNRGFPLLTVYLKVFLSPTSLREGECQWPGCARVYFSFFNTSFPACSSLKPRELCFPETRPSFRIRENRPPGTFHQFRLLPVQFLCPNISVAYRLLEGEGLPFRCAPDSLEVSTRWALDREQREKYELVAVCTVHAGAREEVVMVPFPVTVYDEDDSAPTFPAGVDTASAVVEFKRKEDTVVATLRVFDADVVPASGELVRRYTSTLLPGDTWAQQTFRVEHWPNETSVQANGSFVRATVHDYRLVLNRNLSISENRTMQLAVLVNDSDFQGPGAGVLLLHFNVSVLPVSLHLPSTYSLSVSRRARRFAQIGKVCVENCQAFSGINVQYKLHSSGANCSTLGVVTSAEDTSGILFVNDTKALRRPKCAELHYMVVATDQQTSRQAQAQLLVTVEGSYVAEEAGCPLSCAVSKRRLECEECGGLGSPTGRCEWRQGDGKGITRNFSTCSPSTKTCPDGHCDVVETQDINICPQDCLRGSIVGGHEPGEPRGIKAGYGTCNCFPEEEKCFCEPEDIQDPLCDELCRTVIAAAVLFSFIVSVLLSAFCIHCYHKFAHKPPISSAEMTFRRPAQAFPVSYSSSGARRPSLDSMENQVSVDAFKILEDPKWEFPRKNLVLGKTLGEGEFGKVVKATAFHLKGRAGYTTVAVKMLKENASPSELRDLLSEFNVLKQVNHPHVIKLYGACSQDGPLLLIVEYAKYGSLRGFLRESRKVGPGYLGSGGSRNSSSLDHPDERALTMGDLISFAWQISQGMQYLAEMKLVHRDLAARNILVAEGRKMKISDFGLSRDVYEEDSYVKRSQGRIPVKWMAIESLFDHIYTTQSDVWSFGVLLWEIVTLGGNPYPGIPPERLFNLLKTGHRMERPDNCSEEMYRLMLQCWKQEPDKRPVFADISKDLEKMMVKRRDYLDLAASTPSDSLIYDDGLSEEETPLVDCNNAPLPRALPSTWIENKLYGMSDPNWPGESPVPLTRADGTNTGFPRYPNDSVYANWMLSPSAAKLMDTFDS
UniProt P07949, whole entry M918T, looked up: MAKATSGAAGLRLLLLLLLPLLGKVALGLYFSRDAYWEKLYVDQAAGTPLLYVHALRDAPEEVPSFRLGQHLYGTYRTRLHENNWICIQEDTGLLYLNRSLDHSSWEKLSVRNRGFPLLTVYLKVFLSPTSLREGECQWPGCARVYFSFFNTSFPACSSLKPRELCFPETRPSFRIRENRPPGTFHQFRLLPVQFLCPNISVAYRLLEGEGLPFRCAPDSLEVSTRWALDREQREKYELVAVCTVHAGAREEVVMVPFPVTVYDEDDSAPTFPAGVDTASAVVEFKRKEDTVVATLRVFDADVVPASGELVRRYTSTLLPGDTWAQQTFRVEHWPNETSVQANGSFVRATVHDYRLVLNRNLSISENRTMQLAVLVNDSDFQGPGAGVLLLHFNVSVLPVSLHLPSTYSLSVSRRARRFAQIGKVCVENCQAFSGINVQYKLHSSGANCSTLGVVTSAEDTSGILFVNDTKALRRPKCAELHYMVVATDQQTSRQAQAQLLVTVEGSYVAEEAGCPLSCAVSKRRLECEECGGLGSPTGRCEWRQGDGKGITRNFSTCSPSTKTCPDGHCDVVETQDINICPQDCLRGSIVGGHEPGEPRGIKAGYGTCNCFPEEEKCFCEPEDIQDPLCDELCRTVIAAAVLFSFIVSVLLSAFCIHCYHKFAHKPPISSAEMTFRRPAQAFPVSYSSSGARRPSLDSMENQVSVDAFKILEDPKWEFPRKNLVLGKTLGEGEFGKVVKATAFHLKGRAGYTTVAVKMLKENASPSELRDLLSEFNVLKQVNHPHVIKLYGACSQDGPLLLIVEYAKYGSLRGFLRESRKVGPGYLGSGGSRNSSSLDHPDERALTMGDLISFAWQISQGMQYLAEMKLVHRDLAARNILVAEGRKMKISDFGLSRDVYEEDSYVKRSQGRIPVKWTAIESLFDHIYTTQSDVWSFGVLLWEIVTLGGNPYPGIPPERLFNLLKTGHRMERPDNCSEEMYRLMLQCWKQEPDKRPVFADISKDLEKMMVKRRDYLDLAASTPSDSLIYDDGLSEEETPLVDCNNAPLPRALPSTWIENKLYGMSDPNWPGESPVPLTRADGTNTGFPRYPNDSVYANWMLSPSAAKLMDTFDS
UniProt Q9BRS2: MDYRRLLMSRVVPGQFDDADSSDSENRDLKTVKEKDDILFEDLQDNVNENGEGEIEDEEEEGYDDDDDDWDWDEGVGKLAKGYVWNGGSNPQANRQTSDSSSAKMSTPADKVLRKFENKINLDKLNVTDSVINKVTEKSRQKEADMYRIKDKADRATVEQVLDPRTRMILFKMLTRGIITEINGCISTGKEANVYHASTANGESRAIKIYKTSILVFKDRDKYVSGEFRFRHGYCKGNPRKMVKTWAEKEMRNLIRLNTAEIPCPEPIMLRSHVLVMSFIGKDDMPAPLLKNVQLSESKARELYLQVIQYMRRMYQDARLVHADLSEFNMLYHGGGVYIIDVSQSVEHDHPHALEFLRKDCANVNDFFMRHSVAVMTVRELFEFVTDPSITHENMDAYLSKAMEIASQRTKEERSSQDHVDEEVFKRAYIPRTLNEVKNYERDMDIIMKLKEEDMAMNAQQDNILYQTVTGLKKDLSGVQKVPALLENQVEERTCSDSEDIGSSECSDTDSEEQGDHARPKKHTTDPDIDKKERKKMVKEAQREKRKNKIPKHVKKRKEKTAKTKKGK
UniProt Q13546: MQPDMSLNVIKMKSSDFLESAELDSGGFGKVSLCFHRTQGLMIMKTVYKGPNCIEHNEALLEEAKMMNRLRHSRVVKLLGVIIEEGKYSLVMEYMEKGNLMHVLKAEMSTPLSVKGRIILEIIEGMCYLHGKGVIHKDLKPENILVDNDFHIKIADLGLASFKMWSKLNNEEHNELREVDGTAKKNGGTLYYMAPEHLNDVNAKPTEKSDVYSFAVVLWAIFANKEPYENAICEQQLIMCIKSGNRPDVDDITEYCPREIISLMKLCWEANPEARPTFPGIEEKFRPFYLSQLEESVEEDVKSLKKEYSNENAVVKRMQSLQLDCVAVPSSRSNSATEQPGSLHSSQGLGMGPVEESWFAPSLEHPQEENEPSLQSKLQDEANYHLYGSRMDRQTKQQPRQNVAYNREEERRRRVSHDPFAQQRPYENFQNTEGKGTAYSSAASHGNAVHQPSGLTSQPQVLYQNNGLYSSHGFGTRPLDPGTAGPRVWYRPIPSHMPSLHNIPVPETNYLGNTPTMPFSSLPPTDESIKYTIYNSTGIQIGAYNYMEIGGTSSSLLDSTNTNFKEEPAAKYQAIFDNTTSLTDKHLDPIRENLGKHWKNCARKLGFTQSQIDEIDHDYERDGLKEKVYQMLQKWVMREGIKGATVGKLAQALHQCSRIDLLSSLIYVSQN
UniProt Q14289, whole entry, looked up: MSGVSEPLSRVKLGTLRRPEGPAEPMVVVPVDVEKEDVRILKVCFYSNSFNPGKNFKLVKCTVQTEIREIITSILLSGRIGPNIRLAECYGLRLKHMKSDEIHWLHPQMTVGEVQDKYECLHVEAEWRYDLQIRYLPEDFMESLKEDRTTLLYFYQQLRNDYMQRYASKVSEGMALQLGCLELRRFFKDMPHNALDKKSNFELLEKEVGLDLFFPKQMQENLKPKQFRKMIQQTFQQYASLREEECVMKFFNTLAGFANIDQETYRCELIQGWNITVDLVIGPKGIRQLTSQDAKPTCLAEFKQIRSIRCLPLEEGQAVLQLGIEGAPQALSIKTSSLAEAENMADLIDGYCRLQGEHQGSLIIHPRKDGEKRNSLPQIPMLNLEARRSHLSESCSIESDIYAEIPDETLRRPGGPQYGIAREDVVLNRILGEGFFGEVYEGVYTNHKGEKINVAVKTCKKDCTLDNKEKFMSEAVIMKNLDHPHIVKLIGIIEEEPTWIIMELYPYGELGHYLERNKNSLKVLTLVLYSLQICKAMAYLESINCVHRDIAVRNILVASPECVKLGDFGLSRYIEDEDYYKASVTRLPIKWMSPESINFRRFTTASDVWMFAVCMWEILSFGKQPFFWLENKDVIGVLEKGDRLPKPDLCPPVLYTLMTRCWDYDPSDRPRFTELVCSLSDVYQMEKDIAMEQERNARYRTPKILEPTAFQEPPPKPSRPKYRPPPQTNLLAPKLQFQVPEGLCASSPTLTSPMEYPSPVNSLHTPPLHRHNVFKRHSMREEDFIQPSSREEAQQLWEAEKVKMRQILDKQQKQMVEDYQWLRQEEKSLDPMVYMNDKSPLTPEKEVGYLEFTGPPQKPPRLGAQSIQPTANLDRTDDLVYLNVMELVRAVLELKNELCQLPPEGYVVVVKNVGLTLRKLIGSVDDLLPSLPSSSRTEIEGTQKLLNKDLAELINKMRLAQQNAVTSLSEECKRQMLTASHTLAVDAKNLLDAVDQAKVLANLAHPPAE

Measured: number of time points

CCc1cc(Nc2nccc(-c3c(-c4ccc(OC)c(C(=O)Nc5c(F)cccc5F)c4)nc4ccccn34)n2)c(OC)cc1N1CCC(N2CCN(S(C)(=O)=O)CC2)CC1 (2.5 µM)
not listed: PTK2B
0: all other assays above

COc1cc2nccc(Nc3cccc(Oc4ccccc4)c3)c2cc1OC (2.5 µM)
0: all assays above

N#Cc1cc(N2CCC(C(=O)N3N=CC[C@H]3c3cc(F)cc(F)c3)CC2)ncn1 (10 µM)
not listed: RIPK1
0: all other assays above

CN(C)c1ccc(/C=C2\C(=O)Nc3ccccc32)c2ccccc12 (10 µM)
2: RET
1: PTK2
0: all other assays above

CCC(F)(F)c1cc(N2CCC(S(C)(=O)=O)CC2)nc2sc(C(N)=O)c(N)c12 (10 µM)
0: all assays above

CC(ONC(=O)c1cc(C(F)(F)F)cc(C(F)(F)F)c1)C(=O)Nc1ccc(Cl)cc1 (stereo not drawn) (2.5 µM)
5: PTK2
0: all other assays above

C=CC(=O)Nc1cccc(Oc2nc(Nc3ccc(N4CCN(C)CC4)cc3OC)ncc2Cl)c1 (10 µM)
0: all assays above

CN1CCN(Cc2ccc(-c3cn(C4CCC(O)CC4)c4nc(NCCC5CC5)ncc34)cc2)CC1 (stereo not drawn) (2.5 µM)
1: PTK2 | RIOK1
2: RAF1 | [1]
0: all other assays above

Cc1ncsc1-c1ccc(CNC(=O)[C@@H]2C[C@@H](O)CN2C(=O)[C@@H](NC(=O)COCCOc2ccc(-c3cc(Nc4ccc(OC(F)(F)F)cc4)ncn3)cc2)C(C)(C)C)cc1 (2.5 µM)
3: [1] | RIPK1
2: RAF1 | RIOK1 | RIPK2
0: PRKCA
1: all other assays above

Cc1cc2c(F)c(Oc3ncnn4cc(OC[C@@H](C)OC(=O)[C@H](C)N)c(C)c34)ccc2[nH]1 [Brivanib (alaninate)] (10 µM)
0: all assays above

CCOC(=O)c1c(C)[nH]c(C=C2C(=O)Nc3ccccc32)c1C (10 µM)
0: all assays above

CCOc1cc(=O)[nH]cc1-c1ccc(CC(=O)Nc2cc(C(C)(C)C(F)(F)F)on2)c(F)c1 (10 µM)
not listed: RET | [2]
0: all other assays above

COc1cc2nc(-c3cc(F)ccc3O)nc(N[C@@H]3CNC[C@H]3C(C)(C)O)c2cc1OC (2.5 µM)
0: all assays above

CS(=O)(=O)c1cccc(CNc2nc(Nc3ccc4c(c3)CCC(=O)N4)ncc2C(F)(F)F)c1 (10 µM)
not listed: PTK2
0: all other assays above

CNCc1ccccc1Sc1cccc2ccccc12 [IFN alpha-IFNAR-IN-1 (hydrochloride)] (10 µM)
2: RAF1 | RIOK1 | RIPK2
4: [1]
0: all other assays above

Cn1cc(C2=C(c3ccc(Cl)cc3Cl)C(=O)NC2=O)c2ccccc21 (10 µM)
0: all assays above

CN1C(=O)[C@@H](NC(=O)c2cc(Cc3ccccc3)on2)COc2ccccc21 (10 µM)
not listed: RIPK1
0: all other assays above

O=C1CCC(N2C(=O)c3cccc(OCCCCCOc4ccc(CC(=O)Nc5cc(C6CCC6)[nH]n5)cc4)c3C2=O)C(=O)N1 (stereo not drawn) [PROTAC CDK9 Degrader-1] (10 µM)
2: PTK2 | RIPK1
1: RAF1 | [2] | RIOK1
0: all other assays above

COc1ccc2cc1Oc1ccc(cc1)C[C@H]1c3cc(c(OC)cc3CCN1C)Oc1c(O)c(OC)cc3c1[C@H](C2)N(C)CC3 [Fangchinoline] (2.5 µM)
0: all assays above

CCCCC(=O)OCC(=O)[C@]1(O)Cc2c(O)c3c(c(O)c2[C@@H](O[C@H]2C[C@H](NC(=O)C(F)(F)F)[C@H](O)[C@H](C)O2)C1)C(=O)c1c(OC)cccc1C3=O [Valrubicin] (10 µM)
2: RET
0: all other assays above

CNCCOc1ccccc1C1(Nc2nccn(-c3cc(C(=O)NC4CC4)cc(F)c3C)c2=O)CC1 (10 µM)
0: all assays above

CO/N=C1/C(c2c(O)[nH]c3cc(Cl)c(Cl)cc23)=Nc2ccccc21 (10 µM)
0: all assays above

Cc1cccc(CC(=O)N2CCc3c2ccc(-c2cn(C)c4ncnc(N)c24)c3F)n1 (10 µM)
3: PTK2
0: all other assays above

O=CN1CCN(c2ccc(C=C3C(=O)Nc4ccccc43)cc2)CC1 (10 µM)
0: all assays above

CN(C)CCn1cc2cc(NC(=O)c3cccc(C(F)(F)F)n3)c(C(C)(C)O)cc2n1 (10 µM)
0: all assays above

Nc1nccc(Oc2ccc3c(C(=O)Nc4cccc(C(F)(F)F)c4)cccc3c2)n1 (10 µM)
1: PTK2B
0: all other assays above

Nc1ccc(O)c(C(=O)O)c1 [5-Aminosalicylic Acid] (10 µM)
0: all assays above

CC1=CC(=O)C(C(C)C)=C/C1=N/OC(=O)c1ccccc1C [Poloxin] (2.5 µM)
0: all assays above

COc1cc2ncnc(Nc3cc(Br)c(O)c(Br)c3)c2cc1OC (2.5 µM)
not listed: RIPK1
0: all other assays above

CC1(C)CN(C(=O)c2ccc(-c3cccc4nc(NC(=O)C5CC5)nn34)cc2)C1 [Solcitinib] (10 µM)
0: all assays above

COc1cc2nnc(C(N)=O)c(Nc3ccc(C)cc3F)c2cc1N1CCN(CCO)CC1 (2.5 µM)
0: all assays above

O=C1OC(COc2ccccc2[N+](=O)[O-])CC1Cc1ccccc1 (stereo not drawn) (10 µM)
0: all assays above

C[C@H](Nc1cc2c(-c3ccc4c(c3)OCO4)noc2cn1)c1ccccc1 (10 µM)
0: all assays above

CN1CCN(c2ccc(-n3cc(-c4ccncc4OCC4CCNCC4)cn3)cc2)CC1 [MELK-8a (hydrochloride)] (10 µM)
1: PTK2 | PTK2B
4: [1]
2: RIPK1
3: RIOK1 | RIPK2
0: all other assays above

Source: the supplement of paper PMC12823440, “Inhibitors supercharge kinase turnover through native proteolytic circuits” (Nature, 2025)
